Measured values: the supplement of paper PMC4604168 (melanoma cell lines)
The other results are listed elsewhere or left out. Repeats are few or missing, and single values can be far off.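 Imaging used 1,536-well plates; nuclei positive for cleaved PARP by antibody were divided by total DNA-stained nuclei to yield the apoptosis fraction. Doses for screening kept most cells viable, and cell lines differ markedly in resting and induced cleaved-PARP levels.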

Tests used:
Assay in all cases: cleaved PARP positive nuclei fraction relative to DMSO control; melanoma cells; higher = more apoptosis
Conditions in all cases: library dose: low library concentration; 72 h
WM115 = test system: WM115
WM1716 = test system: WM1716
WM1745 = test system: WM1745
WM3526 = test system: WM3526
WM3619 = test system: WM3619
WM451Lu = test system: WM451Lu

SMILES | cleaved PARP positive nuclei fraction (WM115) [%] | cleaved PARP positive nuclei fraction (WM1716) [%] | cleaved PARP positive nuclei fraction (WM1745) [%] | cleaved PARP positive nuclei fraction (WM3526) [%] | cleaved PARP positive nuclei fraction (WM3619) [%] | cleaved PARP positive nuclei fraction (WM451Lu) [%]
C[C@]1(O)C[C@@H](c2nc(-c3ccc4ccc(-c5ccccc5)nc4c3)c3c(N)nccn32)C1 + Oc1cc(-c2nc(-c3ccccc3)[nH]c2-c2ccncc2)ccc1Cl [L779450] (first compound 0.4 µM, partner dose 0.2 µM) | 191 | 84.4 | 113 | 181 | 110 | 68.1
C[C@@H](N)c1ccc(C(=O)Nc2ccnc3[nH]ccc23)cc1 + Cn1c(=O)n(-c2ccc(C(C)(C)C#N)cc2)c2c3cc(-c4cnc5ccccc5c4)ccc3ncc21 [NVP-BEZ235] (first compound 0.4 µM, partner dose 0.004 µM) | 108 | 216 | 120 | 89.7 | 123 | 193
C[C@@H](N)c1ccc(C(=O)Nc2ccnc3[nH]ccc23)cc1 + Nc1cccc2c1CN(C1CCC(=O)NC1=O)C2=O [lenalidomide] (first compound 0.4 µM, partner dose 1 µM) | 71.5 | 258 | 101 | 49 | 91.2 | 97
C[C@@H](N)c1ccc(C(=O)Nc2ccnc3[nH]ccc23)cc1 + Cn1c(Nc2ccc(C(F)(F)F)cc2)nc2cc(Oc3ccnc(-c4ncc(C(F)(F)F)[nH]4)c3)ccc21 [CHIR265] (first compound 0.4 µM, partner dose 0.08 µM) | 369 | 87 | 173 | 40.8 | 115 | 61.4
C[C@@H](N)c1ccc(C(=O)Nc2ccnc3[nH]ccc23)cc1 + NCC(=O)Nc1ccc(-n2nc(C(F)(F)F)cc2-c2ccc3c(ccc4ccccc43)c2)cc1 [OSU03012] (first compound 0.4 µM, partner dose 1 µM) | 115 | 175 | 102 | 153 | 92.3 | 931
CC(=O)O[C@@]12CO[C@@H]1C[C@H](O)[C@@]1(C)C(=O)[C@H](O)C3=C(C)[C@@H](OC(=O)[C@H](O)[C@@H](NC(=O)OC(C)(C)C)c4ccccc4)C[C@@](O)([C@@H](OC(=O)c4ccccc4)[C@H]21)C3(C)C [Docetaxel] + c1cc(-c2cnn3cc(-c4ccc(OCCN5CCCCC5)cc4)cnc23)ccn1 [Dorsomorphin] (first compound 0.0001 µM, partner dose 0.4 µM) | 1100 | 128 | 229 | 189 | 158 | 428
CC(=O)O[C@@]12CO[C@@H]1C[C@H](O)[C@@]1(C)C(=O)[C@H](O)C3=C(C)[C@@H](OC(=O)[C@H](O)[C@@H](NC(=O)OC(C)(C)C)c4ccccc4)C[C@@](O)([C@@H](OC(=O)c4ccccc4)[C@H]21)C3(C)C [Docetaxel] + O=C(O)C(=O)Nc1sc2c(c1C(=O)O)CCNC2 [TCS401] (first compound 0.0001 µM, partner dose 1.66667 µM) | 335 | 332 | 189 | 196 | 147 | 232
Cn1sc(=O)n(Cc2ccccc2)c1=O + Nc1ccn([C@@H]2O[C@H](CO)[C@@H](O)C2(F)F)c(=O)n1 [gemcitabine] (first compound 0.4 µM, partner dose 0.0004 µM) | 129 | 45.9 | 121 | 318 | 122 | 95.8
CN(c1ncccc1CNc1nc(Nc2ccc3c(c2)CC(=O)N3)ncc1C(F)(F)F)S(C)(=O)=O + C[C@@H](Oc1cc(-c2cnn(C3CCNCC3)c2)cnc1N)c1c(Cl)ccc(F)c1Cl [Crizotinib] (first compound 0.08 µM, partner dose 0.2 µM) | 110 | 37.7 | 113 | 82.6 | 81.1 | 52.1
CC1(C)CCC(c2ccc(Cl)cc2)=C(CN2CCN(c3ccc(C(=O)NS(=O)(=O)c4ccc(N[C@H](CCN5CCOCC5)CSc5ccccc5)c(S(=O)(=O)C(F)(F)F)c4)cc3)CC2)C1 + O=C(Nc1cccc(Cl)c1)Nc1ncc(CCNc2ncnc3ccsc23)s1 [SNS314] (first compound 0.4 µM, partner dose 0.0008 µM) | 80.6 | 245 | 742 | 136 | 128 | 132
CC1(C)CCC(c2ccc(Cl)cc2)=C(CN2CCN(c3ccc(C(=O)NS(=O)(=O)c4ccc(N[C@H](CCN5CCOCC5)CSc5ccccc5)c(S(=O)(=O)C(F)(F)F)c4)cc3)CC2)C1 + CO[C@H]1C[C@@H]2CC[C@@H](C)[C@@](O)(O2)C(=O)C(=O)N2CCCC[C@H]2C(=O)O[C@H]([C@H](C)C[C@@H]2CC[C@@H](OCCO)[C@H](OC)C2)CC(=O)[C@H](C)/C=C(\C)[C@@H](O)[C@@H](OC)C(=O)[C@H](C)C[C@H](C)/C=C/C=C/C=C/1C [everolimus] (first compound 0.4 µM, partner dose 0.02 µM) | 1290 | 114 | 503 | 75.4 | 213 | 179
NC(=O)c1ccc(N(C(N)=O)c2c(F)cccc2F)nc1-c1ccc(F)cc1F + CCN(CC)CCNC(=O)c1c(C)[nH]c(/C=C2\C(=O)Nc3ccc(F)cc32)c1C [sunitinib] (first compound 0.4 µM, partner dose 0.4 µM) | 93.5 | 2.64 | 117 | 57.2 | 92.6 | 51.8
NC(=O)c1ccc(N(C(N)=O)c2c(F)cccc2F)nc1-c1ccc(F)cc1F + COc1cc2ncnc(Nc3ccc(Oc4ccccc4)cc3)c2cc1OC [SrcI1] (first compound 0.4 µM, partner dose 2 µM) | 173 | 164 | 91.7 | 67.1 | 78.4 | 96.3
CCN(CC)CCNC(=O)c1c(C)[nH]c(/C=C2\C(=O)Nc3ccc(F)cc32)c1C [sunitinib] + Cc1cc(Nc2cc(N3CCN(C)CC3)nc(/C=C/c3ccccc3)n2)n[nH]1 [ENMD2076] (first compound 0.4 µM, partner dose 0.04 µM) | 197 | 147 | 192 | 32.3 | 77.9 | 245
COc1ccc(C2=N[C@@H](c3ccc(Cl)cc3)[C@@H](c3ccc(Cl)cc3)N2C(=O)N2CCNC(=O)C2)c(OC(C)C)c1 [Nutlin-3] + Oc1cc(-c2nc(-c3ccccc3)[nH]c2-c2ccncc2)ccc1Cl [L779450] (first compound 0.1 µM, partner dose 0.2 µM) | 99.3 | 96.6 | 125 | 114 | 101 | 47.9
COc1ccc(C2=N[C@@H](c3ccc(Cl)cc3)[C@@H](c3ccc(Cl)cc3)N2C(=O)N2CCNC(=O)C2)c(OC(C)C)c1 [Nutlin-3] + CN(C)S(=O)(=O)c1ccc2c(c1)/C(=C/c1cc3c([nH]1)CCCC3)C(=O)N2 [SU6656] (first compound 0.1 µM, partner dose 0.4 µM) | 45.6 | 15.3 | 109 | 100 | 77.7 | 78.2
CC(=O)O[C@@]12CO[C@@H]1C[C@H](O)[C@@]1(C)C(=O)[C@H](O)C3=C(C)[C@@H](OC(=O)[C@H](O)[C@@H](NC(=O)OC(C)(C)C)c4ccccc4)C[C@@](O)([C@@H](OC(=O)c4ccccc4)[C@H]21)C3(C)C [Docetaxel] + C#Cc1cccc(Nc2ncnc3cc(OCCOC)c(OCCOC)cc23)c1 [erlotinib] (first compound 0.0001 µM, partner dose 0.8 µM) | 449 | 608 | 260 | 188 | 139 | 74.9
C[C@@H](N)c1ccc(C(=O)Nc2ccnc3[nH]ccc23)cc1 + N#Cc1c(O)c2c(-c3ccc(-c4ccccc4O)cc3)csc2[nH]c1=O [A769662] (first compound 0.4 µM, partner dose 2 µM) | 63 | 260 | 103 | 224 | 98.1 | 107
NC1(c2ccc(-c3nc4ccn5c(=O)[nH]nc5c4cc3-c3ccccc3)cc2)CCC1 + O=C(Nc1cccc(Cl)c1)Nc1ncc(CCNc2ncnc3ccsc23)s1 [SNS314] (first compound 0.4 µM, partner dose 0.0008 µM) | 453 | 67.1 | 96.7 | 144 | 93.4 | 59.3
CCCCCCCCc1ccc(CCC(N)(CO)CO)cc1 [fingolimod] + O=c1cc(-c2cccc3c2Sc2ccccc2S3)oc(N2CCOCC2)c1 [KU55933] (first compound 2 µM, partner dose 1 µM) | 69 | 61.4 | 108 | 73.2 | 93 | 174
CC(=O)O[C@@]12CO[C@@H]1C[C@H](O)[C@@]1(C)C(=O)[C@H](O)C3=C(C)[C@@H](OC(=O)[C@H](O)[C@@H](NC(=O)OC(C)(C)C)c4ccccc4)C[C@@](O)([C@@H](OC(=O)c4ccccc4)[C@H]21)C3(C)C [Docetaxel] + COc1ccc2c(c1)CCC1C2CCC2(C)C(NCCCCCCN3C(=O)C=CC3=O)CCC12 [U73122] (first compound 0.0001 µM, partner dose 0.4 µM) | 368 | 319 | 223 | 209 | 184 | 276
CC1(C)CCC(c2ccc(Cl)cc2)=C(CN2CCN(c3ccc(C(=O)NS(=O)(=O)c4ccc(N[C@H](CCN5CCOCC5)CSc5ccccc5)c(S(=O)(=O)C(F)(F)F)c4)cc3)CC2)C1 + C#Cc1cccc(Nc2ncnc3cc(OCCOC)c(OCCOC)cc23)c1 [erlotinib] (first compound 0.4 µM, partner dose 0.8 µM) | 388 | 94.2 | 1120 | 43.2 | 122 | 180
CCN(CC)CCNC(=O)c1c(C)[nH]c(/C=C2\C(=O)Nc3ccc(F)cc32)c1C [sunitinib] + O=C(O)C(=O)Nc1sc2c(c1C(=O)O)CCNC2 [TCS401] (first compound 0.4 µM, partner dose 1.66667 µM) | 147 | 191 | 113 | 32.2 | 99.5 | 69.6

Another view of part of the listing above.
COc1ccc(C2=N[C@@H](c3ccc(Cl)cc3)[C@@H](c3ccc(Cl)cc3)N2C(=O)N2CCNC(=O)C2)c(OC(C)C)c1 [Nutlin-3] + CN(C)S(=O)(=O)c1ccc2c(c1)/C(=C/c1cc3c([nH]1)CCCC3)C(=O)N2 [SU6656] (first compound 0.1 µM, partner dose 0.4 µM)
  cleaved PARP positive nuclei fraction (WM115) [%]: 45.6
  cleaved PARP positive nuclei fraction (WM1716) [%]: 15.3
  cleaved PARP positive nuclei fraction (WM1745) [%]: 109
  cleaved PARP positive nuclei fraction (WM3526) [%]: 100
  cleaved PARP positive nuclei fraction (WM3619) [%]: 77.7
  cleaved PARP positive nuclei fraction (WM451Lu) [%]: 78.2
CC(=O)O[C@@]12CO[C@@H]1C[C@H](O)[C@@]1(C)C(=O)[C@H](O)C3=C(C)[C@@H](OC(=O)[C@H](O)[C@@H](NC(=O)OC(C)(C)C)c4ccccc4)C[C@@](O)([C@@H](OC(=O)c4ccccc4)[C@H]21)C3(C)C [Docetaxel] + C#Cc1cccc(Nc2ncnc3cc(OCCOC)c(OCCOC)cc23)c1 [erlotinib] (first compound 0.0001 µM, partner dose 0.8 µM)
  cleaved PARP positive nuclei fraction (WM115) [%]: 449
  cleaved PARP positive nuclei fraction (WM1716) [%]: 608
  cleaved PARP positive nuclei fraction (WM1745) [%]: 260
  cleaved PARP positive nuclei fraction (WM3526) [%]: 188
  cleaved PARP positive nuclei fraction (WM3619) [%]: 139
  cleaved PARP positive nuclei fraction (WM451Lu) [%]: 74.9
